Some entries share one result that the patent states for a list of compounds. Some ranges recur; such a range may be that of the whole group of compounds.
System: H. contortus L3 larvae
Experiment: Testing compounds on H. contortus L3 larvae (96-well microplate larval kill assay)
Assay type: cell-based, Haemonchus contortus
Settings: primary screening, 5 mM compound, 5% DMSO, overnight RT
Protocol: The L3 stage of H. contortus was collected from the faeces of experimentally infected sheep and stored in water at room temperature until needed. A stock solution of each compound was prepared by suspending the compound in 100% dimethyl sulphoxide (DMSO) to a final concentration of 100 mM.
For this set of experiments, Trichostrongylus vitrinus (T. vitrinus) L3 larvae were used as positive controls by testing with the compounds identified in previous experiments as being able to kill all larvae. Approximately 50 L3 larvae of each species were added, in 95 μl of water, to the wells of a 96-well microtitre plate. All compounds were tested initially at a concentration of 5 mM by adding 5 μl of inhibitor in 100% DMSO.
The plates were incubated overnight at room temperature (RT). Plates were viewed under a binocular microscope and the compounds showing 100% kill of H. contortus larvae were determined. Concentrations above 5 mM were not tested as DMSO alone kills larvae when the proportion exceeds 5% of the total volume. Many of the compounds are predicted to have limited solubility in aqueous solution, thus requiring the presence of organic solvent. Additional controls included wells with and without various concentrations of DMSO alone.
Eight inhibitors, from the primary screening, appeared to kill 90-100% of H. contortus L3 larvae at a concentration of 5 mM. Sequential ten-fold dilutions of 5 mM, down to 0.5 were screened for the ability to kill all larvae added to the well, as shown in FIGS. 15 and 16 for plates 3 and 4. This allowed a direct comparison of toxicity between compounds.

Row | SMILES | % of H. contortus L3 larvae killed
1 | O=C(O)CCCCCCCNC(=O)C1C(C(=O)O)[C@@H]2CC[C@H]1O2 (stereo in doubt) [Compound 18, 3-(7-Carboxyheptylcarbamoyl)-7-oxabicyclo[2.2.1]heptane-2-carboxylic acid] | 90-100%
2 | O=C(O)CCCCCN1C(=O)C2C(C1=O)[C@H]1CC[C@@H]2O1 (stereo partly shown) [Compound 14, N-Hexanoic acid-7-Oxabicyclo(2.2.1)heptane-2,3-dicarboximide] | 90-100%
3 | O=C1C2C(C(=O)N1CCO)[C@H]1CC[C@@H]2O1 (stereo partly shown) [Compound 15, N-Ethyl alcohol-7-Oxabicyclo(2.2.1)heptane-2,3-dicarboximide] | 90-100%
4 | COC(CO)CN1C(=O)[C@@H]2[C@H](C1=O)[C@H]1CC[C@@H]2O1 (stereo partly shown) [Compound 16, N-2-Methoxypropyl-1-ol-7-Oxabicyclo(2.2.1)heptane-2,3-dicarboximide] | 90-100%

From patent US20100137294A1, “COMPOUNDS, COMPOSITIONS AND METHODS FOR CONTROLLING INVERTEBRATE PESTS” (GENETIC TECHNOLOGIES LIMITED, priority 2006, published 2010)
